This passage reports binding results from paper PMC10745484.

By UniProt entry, the sequences of proteins in these tests, tags left out. Residues count along the entry.
UniProt P15502, residues 27-786: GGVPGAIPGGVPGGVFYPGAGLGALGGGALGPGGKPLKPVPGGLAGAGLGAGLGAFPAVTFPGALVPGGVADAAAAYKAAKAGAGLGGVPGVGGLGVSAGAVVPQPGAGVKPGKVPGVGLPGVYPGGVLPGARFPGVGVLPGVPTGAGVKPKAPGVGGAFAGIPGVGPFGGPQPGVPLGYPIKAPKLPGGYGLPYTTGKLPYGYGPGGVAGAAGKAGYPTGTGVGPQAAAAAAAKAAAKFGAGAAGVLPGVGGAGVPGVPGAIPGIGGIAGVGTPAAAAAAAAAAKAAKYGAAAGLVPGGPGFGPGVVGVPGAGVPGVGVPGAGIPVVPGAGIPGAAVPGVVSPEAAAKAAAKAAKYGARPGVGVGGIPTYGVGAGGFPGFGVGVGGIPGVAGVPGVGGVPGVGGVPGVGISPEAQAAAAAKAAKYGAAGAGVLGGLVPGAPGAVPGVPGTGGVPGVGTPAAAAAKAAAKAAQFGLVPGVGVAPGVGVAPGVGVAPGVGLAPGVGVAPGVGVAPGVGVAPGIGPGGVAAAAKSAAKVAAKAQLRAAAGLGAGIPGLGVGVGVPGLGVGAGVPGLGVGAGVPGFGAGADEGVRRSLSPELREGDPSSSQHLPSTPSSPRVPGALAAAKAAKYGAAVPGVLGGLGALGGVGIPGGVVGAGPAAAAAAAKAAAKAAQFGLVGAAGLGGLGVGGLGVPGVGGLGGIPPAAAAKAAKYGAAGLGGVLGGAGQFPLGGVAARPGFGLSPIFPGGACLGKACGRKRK
UniProt P02769, residues 25-607: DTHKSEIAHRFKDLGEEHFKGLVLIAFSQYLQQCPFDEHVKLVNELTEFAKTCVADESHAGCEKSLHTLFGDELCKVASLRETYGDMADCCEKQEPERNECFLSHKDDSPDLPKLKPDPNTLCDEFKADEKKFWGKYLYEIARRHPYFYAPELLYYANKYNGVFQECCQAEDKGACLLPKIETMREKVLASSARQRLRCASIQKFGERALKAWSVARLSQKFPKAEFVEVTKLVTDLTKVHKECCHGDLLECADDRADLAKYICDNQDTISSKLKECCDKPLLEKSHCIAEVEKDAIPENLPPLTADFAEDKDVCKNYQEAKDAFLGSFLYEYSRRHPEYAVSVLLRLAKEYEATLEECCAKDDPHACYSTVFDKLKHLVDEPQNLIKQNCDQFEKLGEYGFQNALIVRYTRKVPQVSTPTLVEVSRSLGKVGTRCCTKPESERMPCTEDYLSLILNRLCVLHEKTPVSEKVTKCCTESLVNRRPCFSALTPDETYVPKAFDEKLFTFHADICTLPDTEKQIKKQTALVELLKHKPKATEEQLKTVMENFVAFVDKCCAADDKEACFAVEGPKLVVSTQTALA

Experiment [1] concerns the target recombinant Fe-S cluster assembly ATP-binding protein (SufC) (Streptococcus pneumoniae strain D39). Nature of the experiment: SPR; Biacore X100; rSufC immobilised on a CM5 chip (1000 RU); plasminogen or BSA flowed at 6.25 to 100 nM, 25 °C, 100 mM HEPES pH 7.4, 150 mM NaCl, 3 mM EDTA, 0.005% surfactant P20; apparent constants; both purified.
Experiment [2] concerns the target elastin from human lungs (human) (UniProt P15502). Nature of the experiment: ELISA; host proteins or BSA coated at 1 µg/well (coating buffer pH 9.6, overnight 4 °C), blocked with 1% skim milk in PBST; 1 µg of recombinant protein added, 1 h at 37 °C; bound recombinant protein detected with peptide antiserum; for rSufC on plasminogen also with EACA added; both purified. In general terms: ELISA stands for enzyme-linked immunosorbent assay.

Experiment [3] concerns the target bovine serum albumin (BSA) (bovine) (UniProt P02769). The description is as above.

No constants are given. Whether binding was seen depends on the method and setting.

On to “bovine serum albumin (BSA) (from UniProt P02769 25-607)”, for which the binding result in experiment [1] was “no binding (tested: 6.25 to 100 nM)”.

In the case of “recombinant Fe-S cluster assembly ATP-binding protein (SufC) (from UniProt A0A0H2ZRV3 2-256)”, the binding result in experiment [2] and in experiment [3] was “no binding (tested: 1 µg per well)” each time.
